# Assay results as given in patent US20250019769A1, “REPURPOSING DRUGS FOR NON-SMALL CELL LUNG CANCER” (WEST VIRGINIA UNIVERSITY BOARD OF GOVERNORS ON BEHALF OF …, priority 2021, published 2025).
# Some of these results come from one statement about several compounds together.
# Tested on: CCLE NSCLC cell lines
# Experiment: PRISM drug screen, growth inhibitory activity in CCLE NSCLC cell lines
# Format: cell-based, human
# Details: average over CCLE NSCLC cell lines (n=117), 8 doses 0.0006 μM to 10 μM, read-out: average IC50 or EC50 value
# Text: The growth inhibitory activity of 4,518 drugs was quantified in 578 human cancer cell lines using the PRISM molecular barcoding and multiplexed screening method. The PRISM dataset is available at the Cancer Dependency Map portal (https://depmap.org/portal/download/, accessed on 1 Apr. 2021). Drug responses of 9 commonly used chemotherapeutic regimens in treating NSCLC were included: carboplatin, cisplatin, paclitaxel, docetaxel, gemcitabine, vinorelbine, etoposide, gefitinib, and erlotinib. For each drug, cell lines with IC50 or EC50 value higher than the maximum dose were defined as resistant; cell lines with IC50 or EC50 value lower than the minimum dose were defined as sensitive. The remaining cell lines were divided into groups of resistant, sensitive, or partial response by using the mean±0.5 standard deviation (SD) of the drug activity metrics, including IC50, ln(IC50), EC50, or ln(EC50) values. Cell lines with a drug activity value less than the mean−0.5 SD were defined as sensitive to the drug, and those with a drug activity value between the mean+0.5 SD and the mean−0.5 SD were defined as having a partial response to the drug. […]
# The growth inhibitory activity of 4,518 drugs was quantified in 578 human cancer cell lines using the PRISM molecular barcoding and multiplexed screening method. […]
compound,measurement,value
COc1ccc(C[C@H]2NC[C@H](O)[C@H]2OC(C)=O)cc1 [anisomycin],IC50,< 1000 nM
